Assay results reported in paper PMC10709327, “A class of secreted mammalian peptides with potential to expand cell-cell communication” (Nature Communications, 2023).
Where a SMILES comes first, the peptide text is derived from it. [ ]: non-standard residue; d: D form. pGlu = O=C1CC[C@@H](C(=O)O)N1

Legend:
[1] = LC-MS quantification of endogenous capped peptides in mouse plasma; conditions: for endogenous concentration in mouse plasma, average concentration: mean of plasma 1-3 (N = 3 pooled mouse plasma samples), LC-QTOF, standard curve; for endogenous concentration in mouse plasma, plasma 1 / endogenous concentration in mouse plasma, plasma 2 / endogenous concentration in mouse plasma, plasma 3: pooled mouse plasma, 1 ml per replicate; for endogenous concentration in mouse plasma, plasma 1: LC-QTOF peak integration against standard curve (100 nM and 10 nM standards), replicate plasma 1; for endogenous concentration in mouse plasma, plasma 2 / endogenous concentration in mouse plasma, plasma 3: LC-QTOF peak integration against standard curve; for endogenous concentration in mouse plasma, plasma 2: replicate plasma 2; for endogenous concentration in mouse plasma, plasma 3: replicate plasma 3
[2] = LC-MS quantification of endogenous capped peptides in human plasma; conditions: mean of plasma 1-3 (n = 3), LC-MS MRM quantified against synthetic standards
[3] = Dynamic regulation of circulating capped peptide levels by physiologic perturbations; format: in vivo, mouse; conditions: for 6 PM/6 AM log2(FC): log2 fold change between morning and evening; for LPS/Vehicle log2(FC) / Fasted/Fed log2(FC) / DIO/Lean log2(FC) / Run/Sed log2(FC): log2 fold change; for LPS/Vehicle log2(FC): 5 hour post LPS vs Vehicle injection; for Fasted/Fed log2(FC): fasted vs fed lean mice; for DIO/Lean log2(FC): fed DIO vs fed lean mice; for Run/Sed log2(FC): immediately after 1 hour running vs sedentary; for Old/Young log2(FC) / Fold change of peptides between sedentary and immediately after 1 hour running, log2(FC): mouse plasma; for Old/Young log2(FC): aged versus young mice, mean of n = 2 per group; for Fold change of peptides between sedentary and immediately after 1 hour running, log2(FC): mean of n = 3 per group

Row | Molecule | endogenous concentration in mouse plasma, average concentration [1] [nM] | endogenous concentration in mouse plasma, plasma 1 [1] [nM] | endogenous concentration in mouse plasma, plasma 2 [1] [nM] | endogenous concentration in mouse plasma, plasma 3 [1] [nM] | average concentration [2] [nM] | 6 PM/6 AM log2(FC) [3] | LPS/Vehicle log2(FC) [3] | Fasted/Fed log2(FC) [3] | DIO/Lean log2(FC) [3] | Run/Sed log2(FC) [3] | Old/Young log2(FC) [3] | Fold change of peptides between sedentary and immediately after 1 hour running, log2(FC) [3] | reduction of plasma level at 6PM versus 6AM ([3]; 2-month old male mice, N = 5/group, P < 0.05) [%]
1 | CC[C@H](C)[C@H](NC(=O)CNC(=O)[C@H](Cc1c[nH]c2ccccc12)NC(=O)[C@H](CO)NC(=O)[C@H](Cc1c[nH]cn1)NC(=O)[C@H](CO)NC(=O)[C@H](CCCCN)NC(=O)[C@@H]1CCCN1C(=O)[C@H](CC(C)C)NC(=O)[C@H](CC(C)C)NC(=O)[C@H](CC(C)C)NC(=O)[C@@H]1CCC(=O)N1)C(=O)N[C@H](C(=O)N[C@@H](CC(C)C)C(=O)N1CCC[C@H]1C(=O)N[C@@H](CC(C)C)C(=O)NCC(=O)N[C@@H](CCC(=O)O)C(=O)N[C@@H](CC(C)C)C(=O)N[C@@H](CCC(=O)O)C(N)=O)C(C)C [CAP-CSF1] ([pGlu]LLLPKSHSWGIVLPLGELE-NH2) | 1.773 | 0.458 | 2.0447 | 2.817 |  |  |  |  |  |  |  |  | 
2 | CC(C)C[C@H](NC(=O)[C@@H]1CCC(=O)N1)C(=O)N[C@@H](CCC(=O)O)C(=O)N[C@@H](CC(C)C)C(=O)N[C@@H](CCCNC(=N)N)C(=O)N[C@@H](CC(C)C)C(=O)N[C@@H](CCCNC(=N)N)C(=O)N[C@H](C(=O)N[C@@H](C)C(=O)N[C@@H](C)C(=O)NCC(=O)N[C@@H](CCCNC(=N)N)C(N)=O)C(C)C [CAP-GDF15] ([pGlu]LELRLRVAAGR-NH2) | 0.1443 | 0.1814 | 0.04805 | 0.2033 |  |  |  |  |  |  |  |  | 
3 | CC[C@H](C)[C@H](NC(=O)[C@H](CCSC)NC(=O)[C@H](CCC(=O)O)NC(=O)CNC(=O)[C@H](Cc1ccccc1)NC(=O)[C@@H]1CCC(=O)N1)C(=O)N[C@@H](CCCNC(=N)N)C(=O)N[C@@H](CC(C)C)C(=O)N[C@@H](CCCCN)C(=O)N[C@H](C(N)=O)[C@@H](C)O [CAP-PLA2G2A] ([pGlu]FGEMIRLKT-NH2) | 0.1415 | 0.1399 | 0.109 | 0.1756 |  |  |  |  |  |  |  |  | 
4 | CC(C)C[C@H](NC(=O)CNC(=O)[C@H](Cc1ccc(O)cc1)NC(=O)[C@H](CO)NC(=O)[C@H](Cc1c[nH]c2ccccc12)NC(=O)[C@H](Cc1c[nH]cn1)NC(=O)[C@@H]1CCC(=O)N1)C(=O)N[C@@H](CCCNC(=N)N)C(=O)N1CCC[C@H]1C(=O)NCC(N)=O [GnRH, reference compound] | 0.05523 | 0.02876 | 0.02725 | 0.1097 |  |  |  |  |  |  |  |  | 
5 | QEPMKKCT [CAP-PRG4, mouse capped peptide from Proteoglycan 4] | 1.211 | 0.9138 | 0.9957 | 1.722 | 3.658 | 0.3805 | -0.173 | -0.4992 | -0.4762 | 0.0947 | -0.7175 |  | 
6 | QGCLRF [CAP-Q59F13] |  |  |  |  | 0.5324 |  |  |  |  |  |  |  | 
7 | QISAKKYLESLI [CAP-VIP, mouse capped peptide from VIP peptides precursor] | 0.2649 | 0.1936 | 0.1611 | 0.4401 | 5.384 |  |  |  |  |  |  |  | 
8 | QKRHFC [CAP-ADAMTS18, mouse capped peptide from ADAMTS18] | 15.3773 | 15.4721 | 11.3869 | 19.2727 |  | -0.2267 | -1.042 | -0.07115 | -0.3088 | 0.3971 | -0.7303 |  | 
9 | QLLPGMLCAGYPE [CAP-PRSS36, mouse capped peptide from Polyserase-2] | 3.088 | 5.297 | 1.186 | 2.7798 |  | -0.3148 | 0.08066 | -0.6957 | -0.3163 | -0.2534 | -0.3184 |  | 
10 | QPKFSFC [CAP-LY86, mouse capped peptide from Lymphocyte antigen 86] | 0.2295 | 0.2116 | 0.0881 | 0.3886 |  | -0.04087 | -1.756 | -0.3307 | 0.8634 | -0.03549 | 0.3757 |  | 
11 | QPVCFPPRPR [CAP-LGALS9] |  |  |  |  | 3.6196 |  |  |  |  |  |  |  | 
12 | QPVYKPYLTLCA [CAP-EGFL8, mouse capped peptide from Epidermal growth factor-like protein 8] | 2.3085 | 1.273 | 3.141 | 2.512 |  | 1.192 | 0.7853 | 2.335 | 1.92 |  | -0.633 | 0.3776 | 
13 | QRKCIIDILTEPKDI [CAP-FURIN] |  |  |  |  | 5.348 |  |  |  |  |  |  |  | 
14 | QTCVDPEDCPVCEVA [CAP-VWF] |  |  |  |  | 1.8401 |  |  |  |  |  |  |  | 
15 | QVVFEKC [CAP-MST1, mouse capped peptide from Hepatocyte growth factor-like protein] | 0.06169 | 0.106 | 0 | 0.07908 |  | -0.2031 | -1.175 | -1.772 | -1.847 | 1.038 | 0.8207 |  | 
16 | QWGGCGDNLKYSSKFVKEFL [CAP-WNT9A] |  |  |  |  | 14.5507 |  |  |  |  |  |  |  | 
17 | QWRRARHNYNDLCPPI [CAP-GNAS, mouse capped peptide from Neuroendocrine secretory protein 55] | 3.19 | 1.87 | 3.125 | 4.575 |  | -0.4545 | -0.2835 | 0.183 | 0.8435 |  | -0.6283 | -0.526 | 
18 | [pGlu]AAAASPENSRGK-NH2 (SMILES C[C@H](NC(=O)[C@H](C)NC(=O)[C@H](C)NC(=O)[C@@H]1CCC(=O)N1)C(=O)N[C@@H](C)C(=O)N[C@@H](CO)C(=O)N1CCC[C@H]1C(=O)N[C@@H](CCC(=O)O)C(=O)N[C@@H](CC(N)=O)C(=O)N[C@@H](CO)C(=O)N[C@@H](CCCNC(=N)N)C(=O)NCC(=O)N[C@@H](CCCCN)C(N)=O) [CAP-GDNF, mouse capped peptide from Glial cell line-derived neurotrophic factor] | 0.4203 | 0.585 | 0.2963 | 0.3797 | 1.759 | -1.247 | 0.02116 | 0.2258 | -0.3117 | 1.093 | 0.7727 |  | 58
